Earlier results in patent publication US11524014B2, “Pharmaceutical formulations and systems for delivery of an androgenic agent and an aromatase inhibitor with sustained multi-phasic release profiles and methods of use” (Havah Therapeutics Pty Ltd., priority 2019, dated 2022).

By UniProt entry, the sequences of proteins in these tests, tags left out. Where a name states a change or a piece, a line headed by the entry shows the natural chain unless it says otherwise.
UniProt P11511: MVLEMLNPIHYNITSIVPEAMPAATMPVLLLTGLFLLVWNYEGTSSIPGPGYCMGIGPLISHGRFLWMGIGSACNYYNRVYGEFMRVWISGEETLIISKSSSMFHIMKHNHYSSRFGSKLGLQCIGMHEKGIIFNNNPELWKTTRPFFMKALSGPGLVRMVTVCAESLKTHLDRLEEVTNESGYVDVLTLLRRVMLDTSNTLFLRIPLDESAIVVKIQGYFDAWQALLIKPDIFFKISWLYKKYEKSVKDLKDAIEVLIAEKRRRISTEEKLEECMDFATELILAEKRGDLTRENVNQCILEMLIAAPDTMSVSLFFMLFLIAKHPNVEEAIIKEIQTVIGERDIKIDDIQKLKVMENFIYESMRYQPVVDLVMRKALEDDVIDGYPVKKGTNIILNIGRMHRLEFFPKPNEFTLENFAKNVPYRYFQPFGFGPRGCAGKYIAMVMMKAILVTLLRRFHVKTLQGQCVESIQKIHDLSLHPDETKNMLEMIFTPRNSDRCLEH

Target: aromatase, JEG3 human choriocarcinoma cell line (Homo sapiens, UniProt P11511)
Conditions: JEG3 human choriocarcinoma cell line overexpressing aromatase; cited from earlier work

CC(C)(C#N)c1cc(Cn2cncn2)cc(C(C)(C)C#N)c1 [Anastrozole, 2,2′-[5-(1H-1,2,4-triazol-1-ylmethyl)-1,3-phenylene]bis(2-methylpropanenitrile)]
IC50: 5.66 nM
